Results are given in words; binding and its absence hold for the method and conditions named. Some results given as binding are weak or reduced against the parent protein; the word gives no strength. For some assays here: Where a sequence is shown, tags or fusion partners need not be part of it. Each block holds one binder with its values, some of them ahead of it.
Assays:
[1] = molecular target: full length AtWRI1 (bait fusion, yeast two-hybrid) (Arabidopsis thaliana) (UniProt Q6X5Y6); experiment: yeast two-hybrid
[2] = molecular target: full length AtWRI1 (bait fusion, yeast two-hybrid) (Arabidopsis thaliana) (UniProt Q6X5Y6); experiment: yeast two-hybrid, growth on -Leu/-Trp/-His
[3] = molecular target: AtWRI1^1-92 (yeast two-hybrid) (Arabidopsis thaliana) (UniProt Q6X5Y6); experiment: yeast two-hybrid with truncated AtWRI1 variants
[4] = molecular target: full length AtWRI1 (bait fusion, yeast two-hybrid) (Arabidopsis thaliana) (UniProt Q6X5Y6); experiment: yeast two-hybrid (AtWRI1 bait, 14-3-3 prey)
nYFP-AtWRI1 = molecular target: T1, nYFP-AtWRI1 (Arabidopsis thaliana, UniProt Q6X5Y6 1-430); experiment: BiFC, transient expression in N. benthamiana leaves (data not shown)
T1 construct: BiFC construct transiently produced in N. benthamiana leaves; also called 35S:nYFP-AtWRI1; not shown: N-terminal half of YFP from the BiFC vector
T1 sequence: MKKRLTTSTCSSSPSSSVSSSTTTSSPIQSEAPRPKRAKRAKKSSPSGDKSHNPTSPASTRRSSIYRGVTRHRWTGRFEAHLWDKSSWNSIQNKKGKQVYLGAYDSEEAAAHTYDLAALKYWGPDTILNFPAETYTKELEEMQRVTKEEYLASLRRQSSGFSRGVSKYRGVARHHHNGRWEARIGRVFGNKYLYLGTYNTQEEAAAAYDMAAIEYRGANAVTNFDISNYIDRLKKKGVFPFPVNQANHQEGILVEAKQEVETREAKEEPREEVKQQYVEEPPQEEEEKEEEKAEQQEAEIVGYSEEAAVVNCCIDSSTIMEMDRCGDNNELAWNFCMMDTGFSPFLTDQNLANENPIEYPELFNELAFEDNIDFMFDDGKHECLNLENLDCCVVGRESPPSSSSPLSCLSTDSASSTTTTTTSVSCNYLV

binding [1]: binds
B1: 14-3-3υ (yeast two-hybrid) (protein, Arabidopsis, UniProt P42645 1-268, looked up, not shown: large carriers)
chain: MSSDSSREENVYLAKLAEQAERYEEMVEFMEKVAKTVETEELTVEERNLLSVAYKNVIGARRASWRIISSIEQKEDSRGNSDHVSIIKDYRGKIETELSKICDGILNLLEAHLIPAASLAESKVFYLKMKGDYHRYLAEFKTGAERKEAAESTLVAYKSAQDIALADLAPTHPIRLGLALNFSVFYYEILNSSDRACSLAKQAFDEAISELDTLGEESYKDSTLIMQLLRDNLTLWTSDLNDEAGDDIKEAPKEVQKVDEQAQPPPSQ

binding [2]: binds
binding [3]: binds
binding [4]: binds
B2: 14-3-3κ (prey fusion, yeast two-hybrid) (protein, not shown: large carriers)
chain: MATTLSRDQYVYMAKLAEQAERYEEMVQFMEQLVSGATPAGELTVEERNLLSVAYKNVIGSLRAAWRIVSSIEQKEESRKNEEHVSLVKDYRSKVETELSSICSGILRLLDSHLIPSATASESKVFYLKMKGDYHRYLAEFKSGDERKTAAEDTMIAYKAAQDVAVADLAPTHPIRLGLALNFSVFYYEILNSSEKACSMAKQAFEEAIAELDTLGEESYKDSTLIMQLLRDNLTLWTSDMQVCPILYFHIQLHHQKLAY

binding (nYFP-AtWRI1): binds
B3: cYFP-14-3-3κ (protein, not shown: large carriers)
chain: B2 chain

Source: patent publication US20180094274A1 (BOARD OF TRUSTEES OF MICHIGAN STATE UNIVERSITY, published 2018)
